Patent publication US20040115734A1
No constants are given. Whether binding was seen depends on the method and setting. In cells and extracts the contact can be indirect. Some binding calls cover weakened binding; strength is not graded here.

Columns and labels:
[1] = biological target: T1, endogenous telencephalin (TLN) from mouse brain extracts (mouse) (UniProt Q60625); test: GST pull-down of endogenous TLN from Triton X-100 brain extracts
T1 sequence (looked up): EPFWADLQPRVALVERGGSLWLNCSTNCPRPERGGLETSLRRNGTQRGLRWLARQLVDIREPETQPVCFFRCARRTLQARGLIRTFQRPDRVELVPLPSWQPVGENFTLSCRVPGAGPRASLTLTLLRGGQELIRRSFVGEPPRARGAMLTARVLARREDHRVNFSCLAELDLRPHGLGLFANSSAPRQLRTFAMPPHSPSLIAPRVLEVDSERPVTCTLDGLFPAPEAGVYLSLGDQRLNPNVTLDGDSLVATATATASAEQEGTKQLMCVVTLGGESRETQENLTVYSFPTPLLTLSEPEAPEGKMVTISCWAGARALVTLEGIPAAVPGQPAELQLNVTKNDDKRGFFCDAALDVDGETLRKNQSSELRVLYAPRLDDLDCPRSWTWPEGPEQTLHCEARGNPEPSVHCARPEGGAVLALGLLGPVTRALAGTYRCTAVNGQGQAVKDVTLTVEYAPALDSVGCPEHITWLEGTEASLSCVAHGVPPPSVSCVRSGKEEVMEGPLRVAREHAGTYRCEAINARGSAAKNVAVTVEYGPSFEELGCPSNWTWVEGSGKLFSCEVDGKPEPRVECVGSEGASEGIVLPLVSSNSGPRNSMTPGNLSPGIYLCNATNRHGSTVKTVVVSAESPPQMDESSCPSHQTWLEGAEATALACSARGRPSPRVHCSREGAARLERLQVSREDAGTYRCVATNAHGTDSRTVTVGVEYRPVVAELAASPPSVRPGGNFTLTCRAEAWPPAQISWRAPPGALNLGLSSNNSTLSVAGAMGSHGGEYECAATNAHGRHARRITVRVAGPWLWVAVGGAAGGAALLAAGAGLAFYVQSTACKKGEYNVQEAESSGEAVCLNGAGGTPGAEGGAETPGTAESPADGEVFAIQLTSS

[2] = biological target: T1, endogenous telencephalin (TLN) from mouse brain extracts (mouse); test: GST pull-down from Triton-X100 brain extracts, western blot with B36.1

Row | binding [1] | binding [2] | Substance
1 | binds | binds | GST-PS1 N-terminal fragment with the first but without the second transmembrane region (name not printed) (from UniProt P08515 1-218; P49768 1-132)
2 | binds | binds | GST-PS1/1-163N (from UniProt P08515 1-218; P49768 1-163)
